Source: the supplement of paper PMC10849652
The list shows a part of the results.

Sequences of proteins named here, by UniProt entry; tags and fusion partners are left off. A change or cut given only in a name is not applied to a line headed by its entry.
UniProt Q9Y5U9: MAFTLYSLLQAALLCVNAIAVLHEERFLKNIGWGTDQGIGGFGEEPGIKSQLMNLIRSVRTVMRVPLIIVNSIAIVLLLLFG
UniProt Q4G0P3: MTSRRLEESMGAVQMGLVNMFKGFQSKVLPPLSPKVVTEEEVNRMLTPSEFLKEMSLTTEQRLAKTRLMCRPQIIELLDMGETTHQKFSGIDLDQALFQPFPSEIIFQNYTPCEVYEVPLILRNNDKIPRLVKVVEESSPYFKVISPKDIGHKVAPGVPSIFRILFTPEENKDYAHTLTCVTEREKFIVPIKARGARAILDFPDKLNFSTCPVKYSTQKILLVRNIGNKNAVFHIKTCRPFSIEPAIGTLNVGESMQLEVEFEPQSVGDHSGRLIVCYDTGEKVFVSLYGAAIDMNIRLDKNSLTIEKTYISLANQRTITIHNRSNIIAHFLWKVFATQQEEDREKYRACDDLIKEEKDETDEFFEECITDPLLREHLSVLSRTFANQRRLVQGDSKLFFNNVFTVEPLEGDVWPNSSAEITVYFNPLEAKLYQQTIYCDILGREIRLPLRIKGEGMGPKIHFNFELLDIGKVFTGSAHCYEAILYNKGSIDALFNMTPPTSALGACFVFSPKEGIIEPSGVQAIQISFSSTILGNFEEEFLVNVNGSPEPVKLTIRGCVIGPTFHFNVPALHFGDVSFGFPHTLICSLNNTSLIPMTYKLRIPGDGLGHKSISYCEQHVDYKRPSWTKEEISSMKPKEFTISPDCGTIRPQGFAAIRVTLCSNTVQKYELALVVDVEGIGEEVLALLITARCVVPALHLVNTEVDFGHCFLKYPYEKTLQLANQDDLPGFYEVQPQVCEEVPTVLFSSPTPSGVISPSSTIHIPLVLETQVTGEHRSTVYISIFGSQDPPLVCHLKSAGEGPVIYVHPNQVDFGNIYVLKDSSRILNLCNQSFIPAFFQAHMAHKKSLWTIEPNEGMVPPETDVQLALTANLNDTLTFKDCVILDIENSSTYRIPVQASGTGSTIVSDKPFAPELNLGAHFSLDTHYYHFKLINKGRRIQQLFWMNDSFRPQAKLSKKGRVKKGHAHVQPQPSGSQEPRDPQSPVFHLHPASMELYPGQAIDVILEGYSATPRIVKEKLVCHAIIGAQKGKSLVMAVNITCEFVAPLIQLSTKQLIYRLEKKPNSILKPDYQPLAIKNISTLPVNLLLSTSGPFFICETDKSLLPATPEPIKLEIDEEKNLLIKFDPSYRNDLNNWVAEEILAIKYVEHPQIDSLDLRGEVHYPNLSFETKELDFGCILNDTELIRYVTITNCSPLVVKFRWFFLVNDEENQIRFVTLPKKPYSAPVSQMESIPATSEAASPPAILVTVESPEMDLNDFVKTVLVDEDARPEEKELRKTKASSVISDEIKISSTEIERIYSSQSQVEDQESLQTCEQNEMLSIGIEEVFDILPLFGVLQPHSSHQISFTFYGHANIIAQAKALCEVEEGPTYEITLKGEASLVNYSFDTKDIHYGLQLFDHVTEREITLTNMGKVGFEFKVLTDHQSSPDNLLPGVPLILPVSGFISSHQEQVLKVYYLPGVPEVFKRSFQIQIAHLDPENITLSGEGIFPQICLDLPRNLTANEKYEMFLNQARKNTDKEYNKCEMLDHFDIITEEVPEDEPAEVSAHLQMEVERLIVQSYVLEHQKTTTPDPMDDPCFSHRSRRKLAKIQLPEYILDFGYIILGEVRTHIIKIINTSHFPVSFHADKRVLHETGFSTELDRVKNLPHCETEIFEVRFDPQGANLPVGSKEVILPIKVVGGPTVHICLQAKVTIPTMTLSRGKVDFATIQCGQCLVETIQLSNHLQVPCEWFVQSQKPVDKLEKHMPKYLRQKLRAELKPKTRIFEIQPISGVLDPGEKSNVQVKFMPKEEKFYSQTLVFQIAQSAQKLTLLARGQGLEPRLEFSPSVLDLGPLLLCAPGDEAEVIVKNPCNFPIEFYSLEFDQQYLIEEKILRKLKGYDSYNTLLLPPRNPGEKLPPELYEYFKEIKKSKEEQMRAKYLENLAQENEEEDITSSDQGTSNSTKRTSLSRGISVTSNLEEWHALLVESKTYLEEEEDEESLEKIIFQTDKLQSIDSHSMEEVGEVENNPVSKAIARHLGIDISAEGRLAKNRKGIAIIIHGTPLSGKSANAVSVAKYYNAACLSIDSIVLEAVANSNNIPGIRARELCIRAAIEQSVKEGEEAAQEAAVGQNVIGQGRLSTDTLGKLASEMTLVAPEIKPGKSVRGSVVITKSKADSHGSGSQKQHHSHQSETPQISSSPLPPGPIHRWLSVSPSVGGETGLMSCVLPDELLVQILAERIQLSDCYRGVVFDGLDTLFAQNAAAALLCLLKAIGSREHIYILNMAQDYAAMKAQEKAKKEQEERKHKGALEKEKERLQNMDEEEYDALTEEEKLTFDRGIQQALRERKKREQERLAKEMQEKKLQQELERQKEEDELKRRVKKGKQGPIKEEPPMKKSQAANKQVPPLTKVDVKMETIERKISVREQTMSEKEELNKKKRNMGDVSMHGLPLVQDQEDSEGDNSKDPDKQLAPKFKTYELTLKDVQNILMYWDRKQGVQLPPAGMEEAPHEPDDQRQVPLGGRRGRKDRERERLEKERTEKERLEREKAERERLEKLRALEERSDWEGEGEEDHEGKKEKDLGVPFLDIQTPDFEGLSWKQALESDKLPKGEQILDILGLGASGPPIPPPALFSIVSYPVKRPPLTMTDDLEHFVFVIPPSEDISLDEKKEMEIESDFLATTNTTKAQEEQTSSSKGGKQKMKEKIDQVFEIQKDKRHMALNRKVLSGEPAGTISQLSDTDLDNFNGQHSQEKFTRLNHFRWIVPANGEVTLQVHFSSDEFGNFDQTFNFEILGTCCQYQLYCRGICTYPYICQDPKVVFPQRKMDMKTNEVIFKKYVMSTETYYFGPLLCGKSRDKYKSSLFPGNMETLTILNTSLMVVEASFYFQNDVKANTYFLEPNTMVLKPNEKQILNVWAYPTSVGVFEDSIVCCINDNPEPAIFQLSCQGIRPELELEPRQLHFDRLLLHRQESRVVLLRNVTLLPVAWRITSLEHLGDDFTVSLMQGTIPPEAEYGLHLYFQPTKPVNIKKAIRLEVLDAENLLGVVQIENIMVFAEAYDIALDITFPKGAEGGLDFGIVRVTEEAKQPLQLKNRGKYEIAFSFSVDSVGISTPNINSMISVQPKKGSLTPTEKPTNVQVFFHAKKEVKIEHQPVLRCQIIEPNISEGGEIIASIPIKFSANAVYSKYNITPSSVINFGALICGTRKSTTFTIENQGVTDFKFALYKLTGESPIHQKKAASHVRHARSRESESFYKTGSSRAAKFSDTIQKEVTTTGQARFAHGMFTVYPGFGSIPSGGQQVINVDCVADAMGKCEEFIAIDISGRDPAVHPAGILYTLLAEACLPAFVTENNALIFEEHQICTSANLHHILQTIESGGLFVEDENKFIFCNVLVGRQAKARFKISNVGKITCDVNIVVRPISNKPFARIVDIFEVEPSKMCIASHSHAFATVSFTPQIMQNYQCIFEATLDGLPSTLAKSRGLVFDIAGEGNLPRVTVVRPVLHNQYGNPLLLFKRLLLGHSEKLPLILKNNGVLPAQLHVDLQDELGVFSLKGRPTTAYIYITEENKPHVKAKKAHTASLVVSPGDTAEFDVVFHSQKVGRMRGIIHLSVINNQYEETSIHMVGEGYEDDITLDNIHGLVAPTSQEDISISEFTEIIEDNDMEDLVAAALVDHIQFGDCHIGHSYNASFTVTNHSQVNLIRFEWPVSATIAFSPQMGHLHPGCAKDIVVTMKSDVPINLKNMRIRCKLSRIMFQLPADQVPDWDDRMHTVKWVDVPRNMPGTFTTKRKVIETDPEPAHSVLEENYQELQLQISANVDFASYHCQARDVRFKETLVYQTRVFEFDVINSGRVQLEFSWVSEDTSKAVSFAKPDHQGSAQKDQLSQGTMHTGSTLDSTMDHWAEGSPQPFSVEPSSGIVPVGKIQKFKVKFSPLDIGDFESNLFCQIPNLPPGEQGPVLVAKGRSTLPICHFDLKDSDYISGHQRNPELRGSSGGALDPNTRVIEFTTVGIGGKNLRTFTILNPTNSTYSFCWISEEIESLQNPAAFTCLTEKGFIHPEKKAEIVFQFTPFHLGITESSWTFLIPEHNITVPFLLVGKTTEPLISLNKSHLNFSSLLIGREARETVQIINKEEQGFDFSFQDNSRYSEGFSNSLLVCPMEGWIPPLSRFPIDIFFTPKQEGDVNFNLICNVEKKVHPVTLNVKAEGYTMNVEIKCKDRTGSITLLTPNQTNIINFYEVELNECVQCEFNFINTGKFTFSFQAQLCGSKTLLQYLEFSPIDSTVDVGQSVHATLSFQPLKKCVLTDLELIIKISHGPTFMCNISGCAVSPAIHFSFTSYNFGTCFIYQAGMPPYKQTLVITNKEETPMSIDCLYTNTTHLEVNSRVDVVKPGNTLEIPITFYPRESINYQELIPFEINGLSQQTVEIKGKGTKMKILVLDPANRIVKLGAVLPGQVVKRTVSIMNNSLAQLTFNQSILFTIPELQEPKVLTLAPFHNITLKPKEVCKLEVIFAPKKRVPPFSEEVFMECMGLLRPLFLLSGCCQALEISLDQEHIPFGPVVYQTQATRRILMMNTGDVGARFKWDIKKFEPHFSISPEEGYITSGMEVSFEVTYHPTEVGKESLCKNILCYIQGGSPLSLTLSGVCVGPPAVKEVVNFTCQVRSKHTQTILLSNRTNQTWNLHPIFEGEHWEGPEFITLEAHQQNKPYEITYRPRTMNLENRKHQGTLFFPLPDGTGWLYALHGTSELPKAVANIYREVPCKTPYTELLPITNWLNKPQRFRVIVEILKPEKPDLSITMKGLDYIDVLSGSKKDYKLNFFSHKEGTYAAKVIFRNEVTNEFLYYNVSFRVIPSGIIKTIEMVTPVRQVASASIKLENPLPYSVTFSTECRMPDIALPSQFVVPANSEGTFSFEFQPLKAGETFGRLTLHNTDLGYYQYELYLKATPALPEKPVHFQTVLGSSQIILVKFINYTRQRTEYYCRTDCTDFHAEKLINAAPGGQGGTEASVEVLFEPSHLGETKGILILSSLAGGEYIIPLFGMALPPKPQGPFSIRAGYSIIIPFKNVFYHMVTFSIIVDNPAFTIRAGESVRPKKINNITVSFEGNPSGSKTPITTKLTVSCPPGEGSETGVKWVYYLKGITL
UniProt P30939: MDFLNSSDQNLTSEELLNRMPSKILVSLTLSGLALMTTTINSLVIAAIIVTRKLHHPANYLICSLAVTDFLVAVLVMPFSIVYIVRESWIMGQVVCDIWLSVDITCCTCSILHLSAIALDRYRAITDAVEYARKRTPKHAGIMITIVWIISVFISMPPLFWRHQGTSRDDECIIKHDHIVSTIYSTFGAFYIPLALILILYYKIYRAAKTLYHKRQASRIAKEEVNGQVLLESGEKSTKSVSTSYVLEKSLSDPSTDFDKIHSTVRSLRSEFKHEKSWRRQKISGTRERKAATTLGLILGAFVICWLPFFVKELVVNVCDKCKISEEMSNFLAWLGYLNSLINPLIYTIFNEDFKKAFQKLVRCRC
UniProt A2RU49: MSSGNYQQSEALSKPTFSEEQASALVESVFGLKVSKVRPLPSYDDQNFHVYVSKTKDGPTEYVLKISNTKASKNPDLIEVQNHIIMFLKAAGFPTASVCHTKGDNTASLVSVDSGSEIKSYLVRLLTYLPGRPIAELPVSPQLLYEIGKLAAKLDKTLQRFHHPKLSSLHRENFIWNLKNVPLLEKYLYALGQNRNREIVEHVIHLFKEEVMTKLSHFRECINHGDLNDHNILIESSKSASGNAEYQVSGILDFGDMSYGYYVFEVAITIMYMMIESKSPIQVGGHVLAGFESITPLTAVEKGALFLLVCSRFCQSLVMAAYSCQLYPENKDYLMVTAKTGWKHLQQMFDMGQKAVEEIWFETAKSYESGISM
UniProt Q6PI98, whole entry, looked up: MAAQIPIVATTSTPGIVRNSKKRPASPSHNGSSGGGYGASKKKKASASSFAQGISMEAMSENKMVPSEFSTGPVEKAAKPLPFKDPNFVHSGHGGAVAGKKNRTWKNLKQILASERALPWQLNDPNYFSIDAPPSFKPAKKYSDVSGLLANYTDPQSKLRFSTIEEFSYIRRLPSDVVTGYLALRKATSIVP
UniProt Q9NWB7: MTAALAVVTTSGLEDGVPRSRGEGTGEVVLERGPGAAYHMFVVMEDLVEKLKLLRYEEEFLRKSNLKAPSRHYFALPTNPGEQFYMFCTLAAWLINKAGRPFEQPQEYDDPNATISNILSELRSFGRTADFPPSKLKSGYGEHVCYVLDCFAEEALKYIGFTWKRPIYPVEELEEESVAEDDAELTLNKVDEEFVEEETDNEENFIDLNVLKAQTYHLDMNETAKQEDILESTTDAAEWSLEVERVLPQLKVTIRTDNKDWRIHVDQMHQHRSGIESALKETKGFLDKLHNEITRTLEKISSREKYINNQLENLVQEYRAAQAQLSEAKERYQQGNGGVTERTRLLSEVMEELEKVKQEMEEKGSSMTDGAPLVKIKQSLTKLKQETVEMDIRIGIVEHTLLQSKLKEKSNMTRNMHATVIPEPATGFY

Assays:
Assay in all cases: log2 fold change, soluble protein after heating vs DMSO (PISA); higher = thermal stabilisation; K562 lysate, 10 uM; active = over 0.2 and 3.5 SD of the protein, either way, in both replicates (recomputed)
[1] = compound: CN1CC[C@H](c2c(O)cc(O)c3c(=O)cc(-c4ccccc4Cl)oc23)[C@H](O)C1 [alvocidib]
Outline: (§1)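 Dounce homogenisation of K562 pellets in PBS pH 7.4 with 1 mM MgCl2 produced a crude extract, used at 1 mg/mL protein. Exposure to 10 μM compound lasted 30 min, and aliquots were then heated for 3 min across 48°C-58°C, pooled and brought to 0.5% NP-40 at 4°C. The supernatant after 21,000xg for 90 min was quantified by TMTpro 16plex LC-MS/MS with channel sums equalised. Duplicate values are given as log-two fold change in thermal stability relative to solvent controls.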

[2] = compound: CN1CCc2c(c3ccccc3n2Cc2ccc(C(=O)NO)cc2)C1 [Tubastatin A]
Outline: as §1

[3] = compound: CNC(=O)C1=CC=CC=C1NC2=NC(=NC=C2Cl)NC3=C(C=C(C=C3)N4CCOCC4)OC
Outline: as §1

[4] = compound: CNc1nc(-c2ccc3c(N)n[nH]c3c2)cc(N2C[C@@H](C(=O)NC3CCCCC3)CC[C@H]2C)n1
Outline: as §1

[5] = compound: COC(=O)N[C@@H](C)CNc1nccc(-c2cn(C(C)C)nc2-c2cc(Cl)cc(NS(C)(=O)=O)c2F)n1 [encorafenib]
Outline: as §1

[6] = compound: COC(=O)[C@H](CCSC)NC(=O)C1=C(C=C(C=C1)NC[C@H](CS)N)C2=CC=CC=C2
Outline: as §1

[7] = compound: COc1cc(Nc2ncc3c(n2)-c2ccc(Cl)cc2C(c2c(F)cccc2OC)=NC3)ccc1C(=O)O [alisertib]
Outline: as §1

[8] = compound: COc1cc2nc(-c3cc(F)ccc3O)nc(N[C@@H]3CNC[C@H]3C(C)(C)O)c2cc1OC
Outline: as §1

[9] = compound: COc1cc2ncnc(Nc3ccc(F)c(Cl)c3)c2cc1OCCCN1CCOCC1 [gefitinib]
Outline: as §1

[10] = compound: CS(=O)(=O)CCNCc1ccc(-c2ccc3ncnc(Nc4ccc(OCc5cccc(F)c5)c(Cl)c4)c3c2)o1 [lapatinib]
Outline: as §1

[11] = compound: CS(=O)(=O)N1CCN(Cc2cc3nc(-c4cccc5[nH]ncc45)nc(N4CCOCC4)c3s2)CC1 [pictilisib]
Outline: as §1

[12] = compound: C[C@H](C1=CC=C(C=C1)C(=O)NC2=C3C=CNC3=NC=C2)N
Outline: as §1

[13] = compound: C[C@H](Nc1ncnc2nc[nH]c12)c1cc2cccc(Cl)c2c(=O)n1-c1ccccc1 [duvelisib]
Outline: as §1

[14] = compound: Cc1cc(Nc2cc(CN3CCOCC3)c3nc(C)c(Cc4ccc(Cl)cc4F)n3n2)n[nH]1 [gandotinib]
Outline: as §1

[15] = compound: Cc1cc(Nc2cc(N3CCN(C)CC3)nc(Sc3ccc(NC(=O)C4CC4)cc3)n2)n[nH]1 [tozasertib]
Outline: as §1

[16] = compound: Cc1ccc(NC(=O)c2ccc(CN3CC[C@H](N(C)C)C3)c(C(F)(F)F)c2)cc1Nc1nccc(-c2cncnc2)n1 [bafetinib]
Outline: as §1

[17] = compound: Cc1cccc(CC(=O)N2CCc3c2ccc(-c2cn(C)c4ncnc(N)c24)c3F)n1
Outline: as §1

[18] = compound: CNC(=O)c1ccc(Nc2ncc(C(F)(F)F)c(NCc3nccnc3N(C)S(C)(=O)=O)n2)cc1 [defactinib]
Outline: as §1

[19] = compound: C[C@@H](Oc1cc(-c2cnn(C3CCNCC3)c2)cnc1N)c1c(Cl)ccc(F)c1Cl [crizotinib]
Outline: as §1

[20] = compound: Cc1ccc(-n2nc(C(C)(C)C)cc2NC(=O)Nc2ccc(OCCN3CCOCC3)c3ccccc23)cc1 [doramapimod]
Outline: as §1

Measured: log2 fold change

IGKC (UniProt P01834)
inactive: [1] -0.079 | [2] 1.21 | [3] 0.209 | [4] -0.14 | [5] -0.11 | [6] -0.277 | [7] -0.051 | [8] 0.412 | [9] 0.04 | [10] 0.123 | [11] 0.293 | [12] 0.08 | [13] 0.155 | [14] 0.152 | [15] 0.014 | [16] 0.128 | [17] 0.529

IER3IP1 (UniProt Q9Y5U9)
inactive: [1] -0.162 | [2] -0.269 | [3] 0.077 | [18] 0.015 | [4] 0.059 | [5] 0.062 | [6] -0.024 | [7] -0.136 | [8] -0.129 | [9] 0.154 | [10] -0.057 | [11] 0.001 | [12] -0.114 | [13] -0.14 | [14] -0.065 | [15] -0.066 | [16] 0 | [17] 0.216

INO80E (UniProt Q8NBZ0)
inactive: [1] -0.073 | [2] 0.085 | [3] 0.146 | [4] -0.009 | [5] 0.044 | [6] -0.261 | [7] -0.135 | [8] -0.021 | [9] 0.005 | [10] 0.316 | [11] 0.077 | [19] -0.12 | [12] 0.021 | [13] 0.177 | [14] 0.136 | [15] -0.039 | [20] 0.037 | [16] 0.03 | [17] 0.271

INCENP (UniProt Q9NQS7)
inactive: [4] -0.12 | [13] 0.083

HSPBP1 (UniProt K7EMM7)
inactive: [4] -0.015 | [13] 0.1

HYOU1 (UniProt J3QL06)
inactive: [2] 0.03 | [3] 0.013 | [18] 0.038 | [4] -0.033 | [5] -0.002 | [6] 0.212 | [7] 0.071 | [8] 0.034 | [9] -0.175 | [10] -0.08 | [19] -0.096 | [13] 0.1 | [15] -0.017 | [20] 0.03

IFI16 (UniProt Q16666)
inactive: [3] -0.01

IDS (UniProt P22304)
inactive: [3] -0.019 | [5] 0.218 | [6] 0.205 | [8] -0.027 | [10] 0.005 | [11] 0.033 | [15] -0.552 | [16] 0.142

IGFN1 isoform 5 (UniProt Q86VF2)
inactive: [8] 0.132 | [10] -0.331

HYDIN (UniProt Q4G0P3)
inactive: [2] -0.041 | [18] 0.045 | [4] 0.414 | [5] 0.172 | [6] -0.02 | [8] -0.154 | [10] 0.037 | [13] 0.179 | [15] 0.041

INO80B (UniProt Q9C086)
inactive: [3] 0.033 | [4] -0.113 | [13] 0.087

ICOSLG isoform 2 (UniProt O75144)
inactive: [2] -0.184 | [11] -0.024 | [16] -0.281

IL15RA (UniProt Q13261)
inactive: [19] 0.04 | [20] 0.061

INAFM2 (UniProt P0DMQ5)
inactive: [4] 0.017 | [19] -0.015 | [13] 0.016 | [20] -0.028

HTR1F (UniProt P30939)
inactive: [18] -0.012 | [11] -0.017 | [16] -0.029

HSPH1 isoform 2 (UniProt Q92598)
inactive: [2] 0.042 | [4] -0.049 | [5] 0.131 | [6] 0.127 | [8] -0.097 | [10] -0.015 | [11] -0.115 | [13] 0 | [15] -0.151 | [16] 0.173

Quoted from the listing (2 entries):
HTR1F (UniProt P30939)
inactive: [18] -0.012 | [11] -0.017 | [16] -0.029

HSPH1 isoform 2 (UniProt Q92598)
inactive: [2] 0.042 | [4] -0.049 | [5] 0.131 | [6] 0.127 | [8] -0.097 | [10] -0.015 | [11] -0.115 | [13] 0 | [15] -0.151 | [16] 0.173

The list goes on:

HUWE1 isoform 2 (UniProt Q7Z6Z7)
inactive: [5] -0.031 | [6] 0.097 | [8] 0.041 | [10] 0.21 | [15] 0.116

HYKK (UniProt A2RU49)
inactive: [2] 0.089 | [3] 0.131 | [5] 0.047 | [6] 0.014 | [7] -0.079 | [8] 0.022 | [9] -0.107 | [10] 0.022 | [11] -0.173 | [19] -0.016 | [15] -0.135 | [20] -0.083 | [16] 0.033

HUWE1 (UniProt H0Y659)
inactive: [2] 0.167 | [4] -0.057 | [13] 0.02

INO80C isoform 4 (UniProt Q6PI98)
inactive: [2] 0.169 | [4] -0.059 | [7] 0.055 | [8] 0.126 | [9] 0.019 | [10] 0.01 | [11] -0.188 | [13] 0.024 | [16] -0.061

IFT57 (UniProt Q9NWB7)
inactive: [2] -0.079 | [3] 0.02 | [4] 0.006 | [5] -0.145 | [6] -0.351 | [7] 0.096 | [8] -0.335 | [9] -0.225 | [10] 0.076 | [19] -0.104 | [13] -0.031 | [15] 0.102 | [20] 0.029
